Assay results reported in patent US12655462B2, “PLK1 target phosphorylation status and treatment of cancer with PLK1 inhibitors” (Cardiff Oncology, Inc., priority 2018, dated 2026).
For at least one compound, name, drawing or mass did not settle the structure.

Sequences of proteins named here, by UniProt entry; tags and fusion partners are left off.
UniProt P53350, whole entry: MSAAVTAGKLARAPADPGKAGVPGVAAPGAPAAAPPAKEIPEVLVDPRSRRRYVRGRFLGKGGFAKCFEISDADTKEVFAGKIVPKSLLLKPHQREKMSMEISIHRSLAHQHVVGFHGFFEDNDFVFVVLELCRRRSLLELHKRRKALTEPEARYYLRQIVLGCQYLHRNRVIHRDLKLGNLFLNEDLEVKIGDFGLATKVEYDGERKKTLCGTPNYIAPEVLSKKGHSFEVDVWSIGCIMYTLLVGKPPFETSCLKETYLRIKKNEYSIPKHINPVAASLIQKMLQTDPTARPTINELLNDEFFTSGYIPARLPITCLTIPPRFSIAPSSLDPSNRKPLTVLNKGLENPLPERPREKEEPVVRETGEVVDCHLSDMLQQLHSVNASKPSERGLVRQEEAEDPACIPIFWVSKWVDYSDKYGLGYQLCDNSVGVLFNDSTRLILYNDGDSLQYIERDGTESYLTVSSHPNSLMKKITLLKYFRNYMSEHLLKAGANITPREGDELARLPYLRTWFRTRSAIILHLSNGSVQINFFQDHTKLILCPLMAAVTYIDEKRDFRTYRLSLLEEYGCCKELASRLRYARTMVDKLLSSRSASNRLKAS

Target: T1, PLK1 phosphorylation of TCTP in MV4-11 and HL-60 (Homo sapiens, UniProt P53350)
T1 construct: endogenous in cells; host or cells: MV4-11 and HL-60 AML cell lines
Assay: pTCTP in AML cell lines MV4-11 and HL-60, western blot (FIG. 2C)
Assay type: cell-based
Details: MV4-11 and HL-60, 15 minutes; onvansertib 0.1 or 0.5 μM, cytarabine 10 or 100 nM, decitabine 0.2 or 1 μM
Experimental: Protein extracts were prepared from PBMC and cell lines using M-PER buffer (ThermoFisher) with 150 mM NaCl and 1× protease and phosphatase inhibitors cocktails (ThermoFisher). Protein concentration was measured with the Pierce BCA protein assay kit (ThermoFisher).
Western blots were performed as Simple Western™ assays using the Wes system (ProteinSimple), a combination of capillary electrophoresis and immunodetection techniques, following the manufacturer's protocols. Briefly, extracts with equal protein concentration were mixed with 0.1× sample buffer and 5× fluorescent master mix. Denatured protein samples, biotinylated ladder (ProteinSimple), primary antibodies, horseradish peroxidase (HRP)-conjugated secondary antibody (ProteinSimple), chemiluminescence substrate and wash buffer were dispensed into respective wells of the assay plate and placed in Wes equipment. Primary antibodies were purchased from Cell Signaling Technology: phospho-TCTP-Ser46 (#5251) and TCTP (#5128), and used at a concentration of 1:50. Quantitative analysis was performed using Compass software (ProteinSimple). […]
AML cell lines MV4-11 and HL-60 were treated for 15 minutes with onvansertib (PCM-075) (0.1 or 0.5 μM), cytarabine (10 or 100 nM) or decitabine (0.2 or 1 μM). Proteins were then extracted from the cells and assessed for pTCTP.

Nc1ncn([C@H]2C[C@H](O)[C@@H](CO)O2)c(=O)n1 [decitabine]
inhibition of pTCTP: but not cytarabine or decitabine, inhibited pTCTP
